Results are given in words; binding and its absence hold for the method and conditions named. Some binding calls cover weakened binding; strength is not graded here.
Biological target: T1, Ubp8-TAP (yeast (endogenous in yeast cells)) (UniProt P50102)
T1 sequence: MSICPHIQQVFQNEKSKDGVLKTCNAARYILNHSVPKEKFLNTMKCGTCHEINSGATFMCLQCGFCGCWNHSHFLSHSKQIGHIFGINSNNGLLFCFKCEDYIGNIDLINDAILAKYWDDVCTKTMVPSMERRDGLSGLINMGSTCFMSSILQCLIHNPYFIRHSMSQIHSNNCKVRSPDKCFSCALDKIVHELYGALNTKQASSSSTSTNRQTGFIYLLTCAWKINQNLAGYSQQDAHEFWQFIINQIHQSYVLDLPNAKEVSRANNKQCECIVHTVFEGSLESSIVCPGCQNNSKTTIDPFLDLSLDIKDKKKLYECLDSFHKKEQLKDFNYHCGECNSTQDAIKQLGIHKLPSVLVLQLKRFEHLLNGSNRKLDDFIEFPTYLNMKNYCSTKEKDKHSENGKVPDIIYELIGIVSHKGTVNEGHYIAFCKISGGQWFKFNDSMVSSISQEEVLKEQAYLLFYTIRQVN
Experiment: tandem affinity purification with western blot; Ubp8-TAP purified by tandem affinity purification; Spt8 detected by western blot (α-Spt8); strain not told

binding: binds
B1: Spt8 (protein, UniProt P38915 1-602)
chain: MDEVDDILINNQVVDDEEDDEEMLSGLENDSKQDLEGNDDGGEDEEDDDDDDEDDDDDEDEREDDDEQEDDDGEDDAARMDKTATPTNEHQHDEQKAAAAGAGGAGDSGDAVTKIGSEDVKLSDVDGGVGSREASSSTHEASANGEVYEYYKHMLNAAQIADSYNIYPTAAIPIQTHVNALAVSRGLKYLFLGGSDGYIRKYDLLNTLEGKLSLTILQKHSLAESIQNAGILQSYWENEIPQKKSEMKLSANKTDYEPKVSPVHSLEVQSECLFILSGLQNGGITMQGVRYMEGSIAHYFKGRNGHTQIVNILRLNGQEDRFLSGSWDKRLLEWDLQTGDIVNEFKKSRSELSSLEMRPLYSSVDVSGNVNSGKENENADDDMDSLFGDEDEDEKQDAGNEPVETGDGSNGEENKEQISEESLNIVYDESVFMTSGLNGSVHIWDRRMTQSPALSLERGAGVPPWCLSACWGVDGDHVYAGRRNACVEQFDLKMPSKPIHNLKLPSISGPVSCVKAMPNNKHLLCASRDNIRLYNVEIAVDASNSTTKSSKVPFLIVPGHHGGIISNLYLDPTSRFIISTSGNRGWQGNSTDTTLIYDIDLE

Source: PMC7594455
